In PubChem BioAssay AID1347075 (National Center for Advancing Translational Sciences (NCATS), 2019):
About 5,500 (1.4%) of roughly 400,000 compounds were called active. This list was built around the results that the source calls inconclusive (neither active nor inactive); the mix of calls is not that of the screen. Calls come from the whole dose curve; as a rule, active = well fitted cell-killing curve with a large enough effect; inconclusive = small, poorly fitted or top-dose-only effect, or effect the other way; inactive = flat fitted curve, though single readings scatter. Potencies of inconclusive entries are doubtful fits and often do not repeat.
% is set by controls: 0 for no effect and ±100 for the full control effect; potency is the fitted concentration of half-maximal effect.

Test: qHTS assay for MDR1-selective chemotherapeutics: Primary screen using the parental adenocarcinoma cell KB-3-1; note: nearly all actives have a fitted effect of over 60% in size
Conditions: KB-3-1 viability, CellTiter-Glo ATP luminescence, 72 h; activity change, negative = cytotoxic: at 46.1 µM (top of the series)
In short: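 Using CellTiter-Glo luminescence, growth of non-resistant KB-3-1 adenocarcinoma cells is assessed 72 h after pin-tool compound addition at 37 °C. Normalized responses across the concentration series yield fitted curves.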
With COc1cc(OC)c(OC)cc1/C=C1\C=Cc2ccccc21 the Potency was inconclusive: 20.6 µM [cytotoxic, partial curve, poor fit].
For COc1cccc(CNC2CCCCCCC2)c1OC, the “activity change, negative = cytotoxic” value was inactive: -6.99%.
In the case of CNC(=O)NC(=O)C(C)OC(=O)c1c2c(nc3ccccc13)/C(=C/c1cccs1)CC2 (centres undefined), the Potency was inconclusive: 29.1 µM [cytotoxic, single point].
In the case of CCC(=O)N1CCN(c2ccc(NC(=O)c3ccc4c(c3)OCO4)cc2)CC1, the Potency was inconclusive: 18.4 µM [cytotoxic, single point].
With CCCCn1c(SCc2nc(N)nc(Nc3ccccc3C)n2)nc2ccccc2c1=O the Potency was inconclusive: 23.1 µM [cytotoxic, single point].
For Cc1ccc2c(c1)C(=O)C(=O)N2CCOc1ccccc1, the Potency was inconclusive: 29.1 µM [cytotoxic, single point].
For Cc1ccccc1CSc1cn(CCNC(=O)c2cccs2)c2ccccc12, the Potency was inconclusive: 29.1 µM [cytotoxic, single point].
For O=C(NCc1cccnc1)c1ccc(COc2ccccc2Cl)cc1, the “activity change, negative = cytotoxic” value was inactive: 4.84%.
For C=CCn1c(SCC#N)nc2c(c1=O)C(C)(C)Cc1ccccc1-2, the Potency was inconclusive: 23.1 µM [cytotoxic, single point].
With O=C(CSc1nc(-c2cccs2)cc(C(F)(F)F)n1)Nc1cc(OCC(F)(F)F)cc([N+](=O)[O-])c1 the Potency was inconclusive: 20.6 µM [cytotoxic, single point].
For CCc1cc(=O)n2[nH]c(-c3ccccc3)c(-c3ccccc3)c2n1, the Potency was inconclusive: 29.1 µM [cytotoxic, single point].
With O=C(Nc1ccc(Cl)cc1)Nc1cc(S(=O)(=O)N2CCOCC2)ccc1N1CCCC1 the Potency was inconclusive: 25.9 µM [rising, single point].
With CCOc1ccc(-n2c(-c3ccc(Cl)cc3)c[n+]3c2SCC3)cc1 the Potency was active: 16.4 µM.
With CCOc1ccc(C(=O)/C=C/c2cc(OC)c(OC)c(OC)c2)cc1 the Potency was inconclusive: 29.1 µM [cytotoxic, single point].
For CCCCn1c(SCC(=O)Nc2nnc(C(C)C)s2)nc2c1c(=O)n(C)c(=O)n2C, the Potency was inconclusive: 16.4 µM [cytotoxic, single point].
With O=C(Nc1ccc2c(c1)OCCO2)C1CC(O)CN1C(=O)Nc1ccccc1 (centres undefined) the “activity change, negative = cytotoxic” value was inactive: -3.84%.
For C#CCOCCOCCOCCNc1nc(N2CCN(C(=O)CCCCCCCCCCNC(=O)[C@H](CCCCN)n3cc(C[C@@H](C)CC)nn3)CC2)nc(N2CCN(C(=O)CCCCCCCCCCNC(=O)[C@H](CCCCN)n3cc(C[C@@H](C)CC)nn3)CC2)n1, the Potency was inconclusive: 25.9 µM [cytotoxic, single point].
In the case of CCS(=O)(=O)N1CCc2cc(C(=O)N3CCN(c4cccc(C(F)(F)F)c4)CC3)ccc21, the Potency was active: 16.4 µM.
For O=C(c1ccc(COc2ccc(Cl)cc2)o1)N1N=C(C(F)F)CC1(O)C(F)F (centres undefined), the Potency was inconclusive: 29.1 µM [cytotoxic, partial curve, poor fit].
For CC(NC1CCN(Cc2ccccc2)CC1)c1ccc(F)cc1 (centres undefined), the “activity change, negative = cytotoxic” value was inactive: -3.11%.
In the case of CCn1c2ccccc2c2n[nH]c(=S)nc21, the Potency was inconclusive: 29.1 µM [cytotoxic, single point].
For Oc1cccc(C(Nc2ccccn2)c2ccc3cccnc3c2O)c1Cl (centres undefined), the Potency was inconclusive: 29.1 µM [cytotoxic, single point].
With O=C(Nc1cc(Sc2nc3ccccc3s2)cc([N+](=O)[O-])c1)c1cccc(F)c1F the Potency was inconclusive: 23.1 µM [cytotoxic, single point].
For Brc1ccc(CN2C3=NCCCN3c3ccccc32)cc1, the “activity change, negative = cytotoxic” value was inactive: -29.2%.
For COc1ccc2c(c1)C(C)=CC(C)(C)N2S(=O)(=O)c1ccc(C)cc1, the Potency was active: 2.06 µM.
With COc1cc(-c2cc(-c3ccc(N)cc3)[nH]c(=O)c2C#N)cc(OC)c1OC the “activity change, negative = cytotoxic” value was inactive: 22.9%.
In the case of CCCC(=O)NC(c1cccc([N+](=O)[O-])c1)c1ccc2cccnc2c1O (centres undefined), the Potency was active: 9.2 µM.
In the case of CC(=O)Cn1cnc2c(sc3nc(C)cc(C)c32)c1=O, the Potency was inconclusive: 16.4 µM [rising, single point].
With CC(=O)Nc1ccccc1C(=O)C(=O)Nc1cccc(C(=O)N2CC(C)CC(C)C2)c1 (centres undefined) the Potency was inconclusive: 23.1 µM [cytotoxic, single point].
For O=C(/C=C/c1ccccc1)NC(=S)NNC(=O)c1cnccn1, the Potency was inconclusive: 25.9 µM [cytotoxic, partial curve, poor fit].
In the case of Cc1ccc(-c2nc3ccc(C)cn3c2Cc2cccc(F)c2)cc1, the Potency was inconclusive: 29.1 µM [cytotoxic, single point].
For O=C(COc1cc2oc(=O)c3c(c2cc1Cl)CCC3)Nc1ccccn1, the “activity change, negative = cytotoxic” value was inactive: 7.88%.
With COc1ccc(Cc2nnc(NC(=O)Nc3ccccc3OC)s2)cc1 the activity change, negative = cytotoxic was inconclusive: -35.8%.
For Cc1[nH]c2ccccc2c1C(=O)CN1CCN(C/C=C/c2ccccc2)CC1, the Potency was inconclusive: 18.4 µM [cytotoxic, single point].
For CN1CCn2cnc(C(=O)NCc3ccccc3)c2C1=O, the Potency was inconclusive: 29.1 µM [rising, partial curve, poor fit].
For CCCn1c(=O)c(C(=O)NNS(=O)(=O)c2ccc(C)cc2)c(O)c2ccccc21, the Potency was inconclusive: 29.1 µM [cytotoxic, single point].
In the case of O=C(/C=C/c1cccc(Cl)c1)c1ccc([N+](=O)[O-])o1, the Potency was inconclusive: 3.26 µM [cytotoxic, full curve, poor fit].
For COc1ccc(/C=N/NC(=O)CCn2cnc(-c3ccccc3)c2-c2ccccc2)cc1, the Potency was active: 5.17 µM.
For Cc1[nH]nc2c1-c1nc3ccccc3nc1C(C)(C)C2, the Potency was inconclusive: 23.1 µM [cytotoxic, single point].
With O=C(Nc1nc(-c2cccs2)cs1)c1cccc(S(=O)(=O)N2CCCCC2)c1 the Potency was inconclusive: 29.1 µM [cytotoxic, single point].
With COc1ccc(C)c2sc(N(CCCN(C)C)C(=O)c3ccc4c(c3)OCCO4)nc12 the Potency was inconclusive: 20.6 µM [cytotoxic, single point].
With CCOC(=O)C1=C(c2ccccc2)NC(N)=NC1c1ccc(OCc2ccc(C(=O)OC)cc2)cc1 (centres undefined) the Potency was inconclusive: 29.1 µM [cytotoxic, single point].
With COc1ccc(-n2cc(CNC3CCN(C)CC3)c(-c3cccc(F)c3)n2)cc1 the Potency was inconclusive: 29.1 µM [cytotoxic, single point].
With COc1ccc2c(c1)CC(N1CCN(C)CC1)c1cc(OC)ccc1S2 (centres undefined) the Potency was inconclusive: 23.1 µM [cytotoxic, partial curve, poor fit].
In the case of CCOc1ccc(S(=O)(=O)Nc2cc(C)ccn2)c2ccccc12, the Potency was inconclusive: 13 µM [cytotoxic, partial curve, poor fit].
In the case of CC(C)(C)c1ccc(OCCCNCc2ccccc2)cc1, the Potency was inconclusive: 29.1 µM [cytotoxic, single point].
For COC(=O)CNC(c1ccccc1)c1cc(Br)ccc1NC(C)=O (centres undefined), the “activity change, negative = cytotoxic” value was inactive: -3.39%.
For CC(C)CC(=O)NC(c1ccccc1Cl)c1c(O)ccc2ccccc12 (centres undefined), the Potency was inconclusive: 29.1 µM [cytotoxic, single point].
With COc1ccccc1NC(=O)CSc1nnc2ccc(-c3ccccn3)nn12 the Potency was inconclusive: 18.4 µM [rising, single point].
With Cc1cc(N/N=C/c2cccc([N+](=O)[O-])c2)nc(-n2nc(C)cc2C)n1 the Potency was inconclusive: 18.4 µM [cytotoxic, single point].
For Cc1nc2c(cnn2-c2ccccc2Cl)c(=O)n1-c1ccc(C(C)C)cc1, the Potency was inconclusive: 29.1 µM [cytotoxic, single point].
With O=C(Nc1ccc(Cl)c(Cl)c1)c1ccc2c(c1)OCO2 the Potency was inconclusive: 18.4 µM [cytotoxic, partial curve, poor fit].
With COc1cccc(/C=N/n2c(-c3n[nH]c4c3CCC4)n[nH]c2=S)c1O the “activity change, negative = cytotoxic” value was inactive: -4.54%.
In the case of CCN(CC)S(=O)(=O)c1cccc(NC(=O)CCNC(=O)NC23CC4CC(CC(C4)C2)C3)c1, the Potency was inconclusive: 8.2 µM [cytotoxic, partial curve, poor fit].
In the case of CCCCC(=O)c1c(O)c2ccccc2oc1=O, the Potency was inconclusive: 29.1 µM [cytotoxic, single point].
For O=C(Nc1ccc(-c2ccccc2)cc1)Nc1nnc(-c2ccncc2)s1, the Potency was inconclusive: 1.03 µM [cytotoxic, full curve].
In the case of COc1ccc(CN2CCN(C(=O)C3CCC(CNS(=O)(=O)c4ccc(C)cc4)CC3)CC2)c(OC)c1OC (centres undefined), the “activity change, negative = cytotoxic” value was inactive: -20.2%.
With COCc1c(C(=O)NC(C)c2ccc(S(N)(=O)=O)cc2)oc2ccccc12 (centres undefined) the Potency was inconclusive: 18.4 µM [rising, partial curve, poor fit].
For CC(C)(C)c1ccc(C(=O)Nc2ccccc2C(=O)NCCN2CCOCC2)cc1, the Potency was inconclusive: 18.4 µM [cytotoxic, single point].
In the case of O=C(Cn1cncn1)NCc1cccc(OC(F)F)c1, the “activity change, negative = cytotoxic” value was inactive: -8.06%.
For Cc1ccc(S(=O)(=O)Nc2ccc(NC(=O)Nc3ccc(F)cc3F)cc2)cc1, the Potency was inconclusive: 25.9 µM [cytotoxic, partial curve, poor fit].
For Cc1cccc2[nH]c(CN(C)C(=O)CC3C(=O)NCCN3CC(C)(C)C)nc12 (centres undefined), the Potency was inconclusive: 0.461 µM [rising, full curve, poor fit].
In the case of COC(=O)CN1C(=O)Nc2ccc(Br)cc2C1c1ccccc1Cl (centres undefined), the Potency was inconclusive: 14.6 µM [cytotoxic, single point].
With COc1cc(/C=C/C(=O)c2ccc(NS(=O)(=O)c3ccc(C)cc3)cc2)cc(OC)c1O the Potency was inconclusive: 29.1 µM [cytotoxic, single point].
